Laboratory results: PubChem BioAssay AID686938 (Drosophila RNAi Screening Center, 2013)
Assay: 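Looking for CRAC channel components and the factors controlling them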 (primary screen). System: Drosophila S2R+ cells. Knock-down reagent: long dsRNA against Drosophila genes, about 0.25 µg dsRNA per well, roughly 10,000 cells. Timing: 5 days of knock-down before the calcium assay. Challenge: thapsigargin (SERCA pump blocker) to empty calcium stores; entry signal taken 4 min after adding it. Measurement: 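Per-well fluo-4 fluorescence in two replicates, unnormalised, measured in resting cells and 4 min after store depletion by the SERCA blocker thapsigargin; ratio of the two present in few wells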. Scale: calcium entry signal: higher = stronger calcium signal after store depletion; resting calcium signal: higher = higher resting calcium signal. Active means: 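Hit if the duplicate-averaged plate z-score for entry over resting signal is under −3; wells with weak total dye signal (Fmax z < −2) or more than 5 off-targets removed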. Meaning of the calls: active = strongly reduced calcium entry; inactive = no strong reduction.
In all, the deposit lists about 23,000 reagents; this is an unselected part of those that have a named target and a result. Of all reagents, 75 (0.33%) were called active. 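Raw plate signals without normalisation; calls rest on plate z-scores that were not deposited; ratio present for only 364 wells.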 Reagents against one gene are numbered here. A plus sign joins genes that one reagent is predicted to hit. The record does not give: the dose of the treatment.

CG42750 #1 — calcium entry signal, replicate 1 (fluorescence units): 3.14e7; calcium entry signal, replicate 2 (fluorescence units): 5.39e7; resting calcium signal, replicate 1 (fluorescence units): 1.86e7; resting calcium signal, replicate 2 (fluorescence units): 2.33e7; activity call: inactive
CG42750 #2 — calcium entry signal, replicate 1 (fluorescence units): 5.77e7; calcium entry signal, replicate 2 (fluorescence units): 3.32e7; resting calcium signal, replicate 1 (fluorescence units): 2.48e7; resting calcium signal, replicate 2 (fluorescence units): 1.59e7; activity call: inactive
CG42750 #3 — calcium entry signal, replicate 1 (fluorescence units): 5.13e7; calcium entry signal, replicate 2 (fluorescence units): 3.40e7; resting calcium signal, replicate 1 (fluorescence units): 2.16e7; resting calcium signal, replicate 2 (fluorescence units): 1.50e7; activity call: inactive
CG42750 #4 — calcium entry signal, replicate 1 (fluorescence units): 3.63e7; calcium entry signal, replicate 2 (fluorescence units): 3.58e7; resting calcium signal, replicate 1 (fluorescence units): 2.16e7; resting calcium signal, replicate 2 (fluorescence units): 1.67e7; activity call: inactive
CG42750 #5 — calcium entry signal, replicate 1 (fluorescence units): 3.71e7; calcium entry signal, replicate 2 (fluorescence units): 5.19e7; resting calcium signal, replicate 1 (fluorescence units): 1.69e7; resting calcium signal, replicate 2 (fluorescence units): 2.21e7; activity call: inactive
CG9626 — calcium entry signal, replicate 1 (fluorescence units): 2.67e7; calcium entry signal, replicate 2 (fluorescence units): 2.94e7; resting calcium signal, replicate 1 (fluorescence units): 1.22e7; resting calcium signal, replicate 2 (fluorescence units): 1.31e7; activity call: inactive
Atpalpha — calcium entry signal, replicate 1 (fluorescence units): 5.50e7; calcium entry signal, replicate 2 (fluorescence units): 3.84e7; resting calcium signal, replicate 1 (fluorescence units): 2.43e7; resting calcium signal, replicate 2 (fluorescence units): 1.75e7; activity call: inactive
l(3)80Fj #1 — calcium entry signal, replicate 1 (fluorescence units): 3.12e7; calcium entry signal, replicate 2 (fluorescence units): 3.27e7; resting calcium signal, replicate 1 (fluorescence units): 1.57e7; resting calcium signal, replicate 2 (fluorescence units): 1.55e7; activity call: inactive
l(3)80Fj #2 — calcium entry signal, replicate 1 (fluorescence units): 3.76e7; calcium entry signal, replicate 2 (fluorescence units): 3.77e7; resting calcium signal, replicate 1 (fluorescence units): 1.83e7; resting calcium signal, replicate 2 (fluorescence units): 1.58e7; activity call: inactive
nau — calcium entry signal, replicate 1 (fluorescence units): 4.88e7; calcium entry signal, replicate 2 (fluorescence units): 4.48e7; resting calcium signal, replicate 1 (fluorescence units): 2.12e7; resting calcium signal, replicate 2 (fluorescence units): 2.05e7; activity call: inactive
gammaTub23C — calcium entry signal, replicate 1 (fluorescence units): 3.12e7; resting calcium signal, replicate 1 (fluorescence units): 1.71e7; activity call: inactive
CG5742 — calcium entry signal, replicate 1 (fluorescence units): 3.97e7; calcium entry signal, replicate 2 (fluorescence units): 3.41e7; resting calcium signal, replicate 1 (fluorescence units): 1.83e7; resting calcium signal, replicate 2 (fluorescence units): 1.79e7; activity call: inactive
Vps26 — calcium entry signal, replicate 1 (fluorescence units): 2.97e7; calcium entry signal, replicate 2 (fluorescence units): 3.32e7; resting calcium signal, replicate 1 (fluorescence units): 1.48e7; resting calcium signal, replicate 2 (fluorescence units): 1.75e7; activity call: inactive
CG11584 — calcium entry signal, replicate 1 (fluorescence units): 3.36e7; calcium entry signal, replicate 2 (fluorescence units): 2.72e7; resting calcium signal, replicate 1 (fluorescence units): 1.68e7; resting calcium signal, replicate 2 (fluorescence units): 1.17e7; activity call: inactive
CG13613 — calcium entry signal, replicate 1 (fluorescence units): 4.08e7; calcium entry signal, replicate 2 (fluorescence units): 5.74e7; resting calcium signal, replicate 1 (fluorescence units): 2.34e7; resting calcium signal, replicate 2 (fluorescence units): 2.19e7; activity call: inactive
Ldh — calcium entry signal, replicate 1 (fluorescence units): 2.84e7; calcium entry signal, replicate 2 (fluorescence units): 3.75e7; resting calcium signal, replicate 1 (fluorescence units): 1.55e7; resting calcium signal, replicate 2 (fluorescence units): 1.85e7; activity call: inactive
Arp2 — calcium entry signal, replicate 1 (fluorescence units): 2.42e7; calcium entry signal, replicate 2 (fluorescence units): 2.39e7; resting calcium signal, replicate 1 (fluorescence units): 1.41e7; resting calcium signal, replicate 2 (fluorescence units): 1.13e7; activity call: inactive
Atf-2 + veg (retired record) #1 — calcium entry signal, replicate 1 (fluorescence units): 4.48e7; resting calcium signal, replicate 1 (fluorescence units): 2.29e7; activity call: inactive
Atf-2 + veg (retired record) #2 — calcium entry signal, replicate 1 (fluorescence units): 2.05e7; calcium entry signal, replicate 2 (fluorescence units): 2.27e7; resting calcium signal, replicate 1 (fluorescence units): 9.48e6; resting calcium signal, replicate 2 (fluorescence units): 1.20e7; activity call: inactive
ppk21 — calcium entry signal, replicate 1 (fluorescence units): 3.28e7; calcium entry signal, replicate 2 (fluorescence units): 5.29e7; resting calcium signal, replicate 1 (fluorescence units): 1.73e7; resting calcium signal, replicate 2 (fluorescence units): 2.09e7; activity call: inactive
Acbp3 — calcium entry signal, replicate 1 (fluorescence units): 2.15e7; calcium entry signal, replicate 2 (fluorescence units): 4.26e7; resting calcium signal, replicate 1 (fluorescence units): 1.06e7; resting calcium signal, replicate 2 (fluorescence units): 1.97e7; activity call: inactive
CG43074 — calcium entry signal, replicate 1 (fluorescence units): 3.46e7; calcium entry signal, replicate 2 (fluorescence units): 4.65e7; resting calcium signal, replicate 1 (fluorescence units): 1.60e7; resting calcium signal, replicate 2 (fluorescence units): 2.06e7; activity call: inactive
aqz + CG9837 — calcium entry signal, replicate 1 (fluorescence units): 3.96e7; calcium entry signal, replicate 2 (fluorescence units): 4.04e7; resting calcium signal, replicate 1 (fluorescence units): 1.86e7; resting calcium signal, replicate 2 (fluorescence units): 2.13e7; activity call: inactive
CG14518 — calcium entry signal, replicate 1 (fluorescence units): 3.40e7; calcium entry signal, replicate 2 (fluorescence units): 5.65e7; resting calcium signal, replicate 1 (fluorescence units): 1.81e7; resting calcium signal, replicate 2 (fluorescence units): 2.45e7; activity call: inactive
ath — calcium entry signal, replicate 1 (fluorescence units): 3.59e7; calcium entry signal, replicate 2 (fluorescence units): 4.93e7; resting calcium signal, replicate 1 (fluorescence units): 1.66e7; resting calcium signal, replicate 2 (fluorescence units): 2.15e7; activity call: inactive
pHCl-1 #1 — calcium entry signal, replicate 1 (fluorescence units): 3.39e7; calcium entry signal, replicate 2 (fluorescence units): 2.67e7; resting calcium signal, replicate 1 (fluorescence units): 1.59e7; resting calcium signal, replicate 2 (fluorescence units): 1.39e7; activity call: inactive
pHCl-1 #2 — calcium entry signal, replicate 1 (fluorescence units): 4.48e7; calcium entry signal, replicate 2 (fluorescence units): 5.85e7; resting calcium signal, replicate 1 (fluorescence units): 2.04e7; resting calcium signal, replicate 2 (fluorescence units): 2.32e7; activity call: inactive
pHCl-1 #3 — calcium entry signal, replicate 1 (fluorescence units): 4.26e7; calcium entry signal, replicate 2 (fluorescence units): 5.18e7; resting calcium signal, replicate 1 (fluorescence units): 1.84e7; resting calcium signal, replicate 2 (fluorescence units): 1.91e7; activity call: inactive
pHCl-1 #4 — calcium entry signal, replicate 1 (fluorescence units): 4.29e7; calcium entry signal, replicate 2 (fluorescence units): 5.56e7; resting calcium signal, replicate 1 (fluorescence units): 1.79e7; resting calcium signal, replicate 2 (fluorescence units): 1.99e7; activity call: inactive

4 entries from above, set out differently:
{"gene knocked down": "Vps26", "reagent": 1, "calcium entry signal, replicate 1 (fluorescence units)": 2.97e7, "calcium entry signal, replicate 2 (fluorescence units)": 3.32e7, "resting calcium signal, replicate 1 (fluorescence units)": 1.48e7, "resting calcium signal, replicate 2 (fluorescence units)": 1.75e7, "activity call": "inactive"}
{"gene knocked down": "CG11584", "reagent": 1, "calcium entry signal, replicate 1 (fluorescence units)": 3.36e7, "calcium entry signal, replicate 2 (fluorescence units)": 2.72e7, "resting calcium signal, replicate 1 (fluorescence units)": 1.68e7, "resting calcium signal, replicate 2 (fluorescence units)": 1.17e7, "activity call": "inactive"}
{"gene knocked down": "CG13613", "reagent": 1, "calcium entry signal, replicate 1 (fluorescence units)": 4.08e7, "calcium entry signal, replicate 2 (fluorescence units)": 5.74e7, "resting calcium signal, replicate 1 (fluorescence units)": 2.34e7, "resting calcium signal, replicate 2 (fluorescence units)": 2.19e7, "activity call": "inactive"}
{"gene knocked down": "Ldh", "reagent": 1, "calcium entry signal, replicate 1 (fluorescence units)": 2.84e7, "calcium entry signal, replicate 2 (fluorescence units)": 3.75e7, "resting calcium signal, replicate 1 (fluorescence units)": 1.55e7, "resting calcium signal, replicate 2 (fluorescence units)": 1.85e7, "activity call": "inactive"}
